{
  "source": "patent US20050267182A1",
  "about": "“Urea derivatives as FLT-3 modulators” (Ambit Biosciences Corporation, priority 2003, published 2005)",
  "key": {"[1]": {"test_system": "MV4,11 cells", "experiment": "FLT3 assay using MV4,11 cells (cellular proliferation, MTS)", "type": "cell-based, human", "conditions": "cell assay code CS0001", "method": "The ability of FLT3 kinase inhibitors to inhibit cellular proliferation was also examined. MV4:11 was a cell line derived from a patient with acute myelogenous leukemia.\nFLT3 Assay Using MV4,11 Cells\nMV4,11 cells were grown in an incubator @ 37° C. in 5% CO2 in Medium 2 (RPMI, 10% FBS, 4 mM glutamine, Penn/Strep). The cells were counted daily and the cell density was kept between 1e5 and 8e5 cells/ml.\nDay One: Enough cells were harvested for experiments to be conducted in 50 ml conical tubes. The harvested cells were spun at 500 g for 5 min at 4° C., the supernatant was then aspirated and the cells were resuspended in the starting volume of 1×PBS. The cells were again spun at 500 g for 5 min at 4° C. and the supernatant again aspirated. The cells were then resuspended in medium 3 (DMEM w/ glut, 10% FBS, Penn/Strep) to a density of 4e5 cells/ml and incubated (37° C. in 5% CO2 O/N.\nDay Two: The cells were counted and enough medium 3 was added to decrease density to 2e5 cells/ml. 50 ul (10,000 cells) was aliquoted into each well of a 96 well optical plate using multichannel pipetman. The compound plate was then set up by aliquoting 3 μl of negative control (DMSO) into column 1 of a 96 well 300 ul polypropylene plate, aliquoting 3 μt of positive control (10 mM AB20121) into column 12 of plate, and aliquoting 3 μl of appropriate compounds from serial dilutions into columns 2-11. […]"}, "[2]": {"test_system": "CS0005", "experiment": "Cell Assay: CS0005", "type": "cell-based", "conditions": "cell assay code CS0005"}},
  "note": "For at least one compound, name, drawing or mass did not settle the structure.",
  "data": [
    {"smiles": "CC(C)(C)c1cc(NC(=O)Nc2ccc(NC(=O)c3cc([N+](=O)[O-])ccn3)cc2)no1", "note": "[Compound N7]", "values": [
      {"measurement": "Cell Assay: CS0001:IC50", "setting": "[1]", "value": "+ + + +"},
      {"measurement": "Cell Assay: CS0005:IC50", "setting": "[2]", "value": "+ + + +"}
    ]}
  ]
}
